From ChEMBL document CHEMBL3988442, “University of Dundee, Small-Polar-MMV Screening Library” (2021).

Mtb growth Cornell: 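Whole-cell assay for inhibitors of Mycobacterium tuberculosis growth, labelled Cornell in the record; the read-out is not stated. The concentration is filed as 10 mM, unlikely as a test dose, so the dose is not known. Higher means stronger inhibition (inferred from two other growth screens of the library). Size under these conditions: about 53,000 compounds, about 900 of them at 50% or above in at least one test.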
Mtb heat-shock: 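Assay on Mycobacterium tuberculosis, filed only as a heat shock assay from Cornell; the read-out is not stated. The concentration is filed as 10 mM, unlikely as a test dose, so the dose is not known. The record gives no direction; compounds that gave an IC50 in retests scored well above the rest, so higher reads as stronger inhibition. Size under these conditions: about 69,000 compounds, about 930 of them at 50% or above in at least one test.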

Values are the deposited “Percent Effect”, in %.
The record does not define 0% and 100%; most values in the screen are far below 50% and negative numbers occur (in some assays of this library far below -100).
This is an unselected part of the compounds tested.
A dash means the value is not listed here; it may have been measured.

| # | structure | Mtb growth Cornell | Mtb heat-shock |
|---|---|---|---|
| 1 | `CCNC(=O)[C@@H]1C[C@H](N)CN1C(=O)C1(c2ccc(OC)cc2)CCCC1` | 10.37 | 17.29 |
| 2 | `[H][C@@]12CCN(S(=O)(=O)CCC)[C@]1([H])CC[C@@H](c1nnc(C)o1)O2` | -36.66 | -9.989 |
| 3 | `CCNC(=O)[C@@H]1CCCN1C(=O)c1cccc(CCC(C)(C)O)c1` | -19.03 | 1.039 |
| 4 | `CC(=O)N1CCC(C(=O)NCc2ncc(-c3ccccc3)o2)CC1` | 14.73 | 16.72 |
| 5 | `c1cncc(-c2noc(CN3CCCC(Cn4cncn4)C3)n2)c1` (centres undefined) | - | -17.78 |
| 6 | `COc1ccc(C)cc1CCNS(C)(=O)=O` | 12.61 | 21.68 |
| 7 | `COCCC(=O)N1CCN(CC2CC2)c2ccccc21` | - | 17.36 |
| 8 | `Cc1nc(C)n(CC2CCCN(Cc3nnc(C(C)(C)C)o3)C2)n1` (centres undefined) | -10.35 | 6.993 |
| 9 | `Cc1cc2ncc(C(C)NCc3cccnc3)c(C)n2n1` (centres undefined) | 14.05 | 8.129 |
| 10 | `Cn1ncc2c1CN(C(=O)Cc1ccccn1)CC2COCC1CC1.O=C(O)C(F)(F)F.O=C(O)C(F)(F)F` (centres undefined) | 0.6274 | 2.336 |
| 11 | `CCc1nc(CN2CCN(C(=O)COCc3ccccc3)CC2)no1` | 5.617 | -7.161 |
| 12 | `c1ncn(Cc2ccc(CNCc3ccc4c(c3)OCCO4)cc2)n1` | 4.414 | 1.208 |
| 13 | `O=C(Nc1ccc(F)cc1F)N(CCC(F)(F)F)C[C@H](O)CO` | - | -3.442 |
| 14 | `O=C(NCCCc1ccco1)c1ccc(N2CCOCC2)cc1` | 2.453 | 6.654 |
| 15 | `Cc1cc(C)nc(C2CCCN2C(=O)c2cnccn2)n1` (centres undefined) | -1.129 | 14.76 |
| 16 | `Cc1cc(-c2nn(C)c(Cl)c2CN2CCCCC(N)C2)no1` (centres undefined) | - | 8.432 |
| 17 | `CCOCC(=O)N1CCC(c2nccn2C)CC1` | -0.6736 | -15.01 |
| 18 | `[H][C@@]12C[C@H](C(=O)NC)[C@@]([H])(CN(c3ncc(CC)cn3)C1)O2` | 14.34 | 3.052 |
| 19 | `CCCNC(=O)N1CCc2ccc(S(=O)(=O)N3CCN(C)CC3)cc2C1` | 9.178 | -21.39 |
| 20 | `O=C(CSC1=NS(=O)(=O)c2cc(Cl)ccc2N1)c1ccccc1` | - | -12.75 |
| 21 | `O=C(CN1CCCC1Cn1cncn1)NCCc1c(F)cccc1F` (centres undefined) | -0.3223 | -8.867 |
| 22 | `O=C(O)C(F)(F)F.[H][C@]12CCC[C@@H](CN(C)C)[C@@]1([H])CN(c1ncccn1)C2` | - | -9.453 |
| 23 | `CN(CCOc1cccc(S(C)(=O)=O)c1)c1ccccc1` | 16.07 | -9.607 |
| 24 | `Cn1cc(CN2CCOC(CCNC(=O)c3ccsc3)C2)cn1` (centres undefined) | -11.25 | -49.64 |
| 25 | `COc1cccc(-c2ncc(CN3CC[C@H](CO)[C@@H](O)C3)s2)c1` | - | -4.878 |
| 26 | `O=C(C1CCOC1)N1CCc2ncnc(-c3cccnc3)c2CC1` (centres undefined) | -3.908 | -5.678 |
| 27 | `CCN(CC)C(=O)c1nnc2ccc(N3CCOCC3)cc2n1` | - | -11.07 |
| 28 | `COc1c(F)cc(F)cc1-c1nc2c([nH]1)CCNC2` | -9.131 | -6.097 |
| 29 | `Cc1nc(-c2nc(C(=O)N3CCOCC3)c3ccccn23)cn1C(C)C` | 14.85 | -20.92 |
| 30 | `COCCn1ccnc1CN1CCc2[nH]cnc2C1c1cnn(C)c1C` (centres undefined) | 26.2 | -15.16 |
| 31 | `COC(=O)CCn1ccc(=O)c2cc(F)ccc21` | 13.3 | 7.689 |
| 32 | `O=C(O)C(F)(F)F.O=C(O)C(F)(F)F.O=C1CC2(CCN(Cc3ccccn3)C2)CN1c1cccnc1` (centres undefined) | 14.89 | -28.7 |
| 33 | `Cc1cc(CNC(=O)N2CCN(c3ccccc3)CC2)no1` | 29.71 | 16.95 |
| 34 | `CC[C@@H](c1ccccc1)n1c(CCN)n[nH]c1=O` | 14.5 | 0.4342 |
| 35 | `CC(=O)N1CCN(c2ccc3ccc(C(=O)NC4CCCC4)cn23)CC1` | -6.311 | 69.47 |
| 36 | `Cc1ccc2nc(C3CCCN3Cc3nnc(C)s3)[nH]c2c1` (centres undefined) | -40.92 | -8.638 |
| 37 | `O=C(c1sccc1-n1cnnn1)N1CCCCC1` | -13.82 | -9.778 |
| 38 | `Cc1nnc2n1CCN(C(=O)c1ccnc(N(C)C)c1)C2` | - | -8.564 |
| 39 | `CCc1nnc2n1CCN(CC(=O)Nc1cc(C)on1)C2` | -11.48 | 2.617 |
| 40 | `CC(c1ccc(Br)cc1)N1CCCN(C(N)=O)CC1` (centres undefined) | 20.72 | -17.07 |
| 41 | `CC(C)(C)Nc1c(C2CCN(C(=O)C(C)(C)C)CC2)nc2ccccn12` | 45.97 | -4.712 |
| 42 | `[H][C@@]12CCCC[C@]1(O)CCN(C(=O)c1ccc3c(ccn3C)c1)C2` | 6.081 | 11.13 |
| 43 | `Cc1ccc(O)c(C(=O)N2CCCC(NC(=O)C(C)C)C2)c1` (centres undefined) | -54.37 | 3.405 |
| 44 | `O=C(O)C(F)(F)F.[H][C@]12CC[C@@]3(N=C(CC)N(C)C3=O)[C@@]1([H])CN(Cc1ccc(Cl)cc1)C2` | 8.243 | -5.263 |
| 45 | `O=C(NC1CC1)N1CCC2(CC1)CC(N1CCOCC1)c1ccccc12.O=C(O)C(F)(F)F` (centres undefined) | 4.425 | -13.6 |
| 46 | `O=C(O)C(F)(F)F.[H][C@]12CN(Cc3cccc(Cl)c3)C[C@@]1([H])S(=O)(=O)CC[C@@H]2C(=O)NCC(C)C` | 8.592 | -5.384 |
| 47 | `O=C(c1ccc[nH]1)N1CCN(Cc2ccncc2)c2ncccc2C1` | 1.376 | -30.88 |
| 48 | `Cc1cc(C)n(CC2CCCN2C(=O)c2ccnc(N(C)C)c2)n1` (centres undefined) | - | -1.662 |
| 49 | `CC(O)c1cn(CC2CCN(C(=O)c3cccc(N(C)C)c3)CC2)nn1` (centres undefined) | 4.414 | 3.66 |

Some entries from above, unchanged:

* Cc1cc(-c2nn(C)c(Cl)c2CN2CCCCC(N)C2)no1 (centres undefined) : Mtb heat-shock: 8.432%
* [H][C@@]12CCN(S(=O)(=O)CCC)[C@]1([H])CC[C@@H](c1nnc(C)o1)O2 : Mtb growth Cornell: -36.66%; Mtb heat-shock: -9.989%
* COc1ccc(C)cc1CCNS(C)(=O)=O : Mtb growth Cornell: 12.61%; Mtb heat-shock: 21.68%
* Cn1ncc2c1CN(C(=O)Cc1ccccn1)CC2COCC1CC1.O=C(O)C(F)(F)F.O=C(O)C(F)(F)F (centres undefined) : Mtb growth Cornell: 0.6274%; Mtb heat-shock: 2.336%